{
  "source": "paper PMC12120873",
  "about": "“Evening complex component ELF3 interacts with LUX proteins to repress soybean root nodulation”",
  "system": "LUX2-MBP (Glycine max)",
  "experiment": "EMSA",
  "conditions": "LightShift Chemiluminescent EMSA Kit (Pierce) binding buffer, composition, salt and pH not stated; room temperature 20 min; 6% native PAGE; recombinant protein; protein details: MBP; label: biotin",
  "note": "For at least one entry, the source does not settle the construct or the ends of the probe.",
  "data": [
    {"sequence": "TTGACATTCATATCCTTTGTATTTCAATTAGATTAGATATGTTCTACGGA (double strand) [probe-ENOD40 (P1 region)]", "values": [
      {"measurement": "binding result", "value": "binds"}
    ]}
  ]
}
